1 sequence from publication PMC6879534, “Structural basis for DNA unwinding at forked dsDNA by two coordinating Pif1 helicases” (Nature Communications, 2019) can be followed below.

The target of this data set is BaPif1 wild type (UniProt A0A373G551). As to the kind of experiment: crystal structure (3.3 A). The settings on record: ADP-AlF4-, protein:DNA 4:1; crystals: 80 mM NaCl, 40 mM sodium cacodylate pH 6.0, 35% MPD, 12 mM spermine, 16 C; recombinant protein.

For at least one entry, the source does not settle the construct or the ends of the probe.

In the case of “TTTTTTTTTTCGCGCGCGCGTTTTTTTTTT / TTTTTTTTTTCGCGCGCGCGTTTTTTTTTT [dT10-fdsDNA (10dT-fdsDNA)]”, the binding result is “binds”.
